Values are relative to the signal before dosing, not to a vehicle control; the signal also falls without drug.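 Labels refer to human fibroblasts, largely primary: uterine (C12385, HUF), lung (H6013), bone (Hs27A), adrenal (HADF), skin (WS1), plus mammary HMF and breast cancer-associated Hs343T. Cancer lines are basal-like or mesenchymal-like triple-negative breast cancer. The paper counts as hits responses shifting over 3x the replicate standard deviation. The tissue of the other fibroblasts is not given here.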
Tested on: MDAMB231
Assay: relative JC-1 red fluorescence (viability) vs pre-drug, coculture with fibroblast (fraction); higher = more viable cancer cells
Details: 100 µM
Protocol: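 JC-1 labelled TNBC cells cocultured 1:1 (1,500 cells each) with CellTrace Violet stained primary or stromal fibroblasts in 384-well plates in FluoroBrite medium, treated with one of 42 anticancer drugs at 0.1, 1, 10 or 100 uM. JC-1 red fluorescence (mitochondrial integrity in cancer cells only) was read by plate reader every 8 h for 72 h. Values are normalised to each well's pre-drug value. The stock of one drug was tenfold lower, so its dose labels may be too high.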

O=NN(CCCl)C(=O)NCCCl [Carmustine]
relative JC-1 red fluorescence
Details	8 h	16 h	24 h	32 h	40 h	48 h	56 h	64 h	72 h
coculture fibroblast: C12385	0.7235	0.6778	0.692	0.623	0.551	0.538	0.52	0.534	0.538
coculture fibroblast: H6013	0.9036	0.87	0.831	0.827	0.8	0.7795	0.7638	0.738	0.697
coculture fibroblast: H6019	0.777	0.729	0.785	0.723	0.695	0.691	0.649	0.634	0.596
coculture fibroblast: H6076	0.832	0.759	0.726	0.695	0.661	0.6307	0.619	0.621	0.621
coculture fibroblast: H6231	0.846	0.7888	0.7346	0.7147	0.673	0.651	0.622	0.609	0.586
coculture fibroblast: HADF	0.879	0.847	0.8305	0.8	0.7716	0.748	0.716	0.706	0.656
coculture fibroblast: HCFa	0.90771	0.8588	0.822	0.789	0.754	0.71	0.672	0.639	0.5908
coculture fibroblast: HCPF	0.831	0.744	0.703	0.683	0.632	0.595	0.568	0.542	0.523
coculture fibroblast: HHSteC	0.914	0.8812	0.855	0.79814	0.7545	0.729	0.6811	0.6595	0.631
coculture fibroblast: HMF	0.845	0.768	0.727	0.701	0.658	0.621	0.597	0.586	0.558
coculture fibroblast: HPFa	0.9053	0.894	0.8522	0.8085	0.7813	0.7516	0.6925	0.6573	0.598
coculture fibroblast: HUF	0.8243	0.728	0.756	0.644	0.589	0.584	0.555	0.567	0.568
coculture fibroblast: Hs5	0.868	0.81	0.773	0.732	0.699	0.649	0.62	0.598	0.575
coculture fibroblast: Hs27A	0.86993	0.853	0.816	0.804	0.768	0.742	0.722	0.71	0.655
coculture fibroblast: Hs343T	0.858	0.75	0.695	0.659	0.606	0.555	0.512	0.482	0.452
coculture fibroblast: WS1	0.725	0.638	0.645	0.551	0.505	0.492	0.46	0.466	0.461

— the supplement of paper PMC6078165
